These are yes or no findings as the source states them, for the method shown. In cells and extracts the contact can be indirect. Some results given as binding are weak or reduced against the parent protein; the word gives no strength.

Sequences of proteins named here, by UniProt entry; tags and fusion partners are left off.
UniProt P60842: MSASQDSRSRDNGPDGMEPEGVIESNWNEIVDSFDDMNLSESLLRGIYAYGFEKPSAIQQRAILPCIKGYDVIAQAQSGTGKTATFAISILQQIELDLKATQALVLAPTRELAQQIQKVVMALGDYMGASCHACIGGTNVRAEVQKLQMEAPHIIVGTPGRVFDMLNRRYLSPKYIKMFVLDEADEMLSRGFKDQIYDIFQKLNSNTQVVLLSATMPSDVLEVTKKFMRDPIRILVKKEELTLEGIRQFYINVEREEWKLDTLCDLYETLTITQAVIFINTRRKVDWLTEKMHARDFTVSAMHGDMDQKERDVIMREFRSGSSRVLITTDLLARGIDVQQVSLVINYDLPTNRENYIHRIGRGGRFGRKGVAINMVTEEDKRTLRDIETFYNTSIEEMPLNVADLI
UniProt O43432: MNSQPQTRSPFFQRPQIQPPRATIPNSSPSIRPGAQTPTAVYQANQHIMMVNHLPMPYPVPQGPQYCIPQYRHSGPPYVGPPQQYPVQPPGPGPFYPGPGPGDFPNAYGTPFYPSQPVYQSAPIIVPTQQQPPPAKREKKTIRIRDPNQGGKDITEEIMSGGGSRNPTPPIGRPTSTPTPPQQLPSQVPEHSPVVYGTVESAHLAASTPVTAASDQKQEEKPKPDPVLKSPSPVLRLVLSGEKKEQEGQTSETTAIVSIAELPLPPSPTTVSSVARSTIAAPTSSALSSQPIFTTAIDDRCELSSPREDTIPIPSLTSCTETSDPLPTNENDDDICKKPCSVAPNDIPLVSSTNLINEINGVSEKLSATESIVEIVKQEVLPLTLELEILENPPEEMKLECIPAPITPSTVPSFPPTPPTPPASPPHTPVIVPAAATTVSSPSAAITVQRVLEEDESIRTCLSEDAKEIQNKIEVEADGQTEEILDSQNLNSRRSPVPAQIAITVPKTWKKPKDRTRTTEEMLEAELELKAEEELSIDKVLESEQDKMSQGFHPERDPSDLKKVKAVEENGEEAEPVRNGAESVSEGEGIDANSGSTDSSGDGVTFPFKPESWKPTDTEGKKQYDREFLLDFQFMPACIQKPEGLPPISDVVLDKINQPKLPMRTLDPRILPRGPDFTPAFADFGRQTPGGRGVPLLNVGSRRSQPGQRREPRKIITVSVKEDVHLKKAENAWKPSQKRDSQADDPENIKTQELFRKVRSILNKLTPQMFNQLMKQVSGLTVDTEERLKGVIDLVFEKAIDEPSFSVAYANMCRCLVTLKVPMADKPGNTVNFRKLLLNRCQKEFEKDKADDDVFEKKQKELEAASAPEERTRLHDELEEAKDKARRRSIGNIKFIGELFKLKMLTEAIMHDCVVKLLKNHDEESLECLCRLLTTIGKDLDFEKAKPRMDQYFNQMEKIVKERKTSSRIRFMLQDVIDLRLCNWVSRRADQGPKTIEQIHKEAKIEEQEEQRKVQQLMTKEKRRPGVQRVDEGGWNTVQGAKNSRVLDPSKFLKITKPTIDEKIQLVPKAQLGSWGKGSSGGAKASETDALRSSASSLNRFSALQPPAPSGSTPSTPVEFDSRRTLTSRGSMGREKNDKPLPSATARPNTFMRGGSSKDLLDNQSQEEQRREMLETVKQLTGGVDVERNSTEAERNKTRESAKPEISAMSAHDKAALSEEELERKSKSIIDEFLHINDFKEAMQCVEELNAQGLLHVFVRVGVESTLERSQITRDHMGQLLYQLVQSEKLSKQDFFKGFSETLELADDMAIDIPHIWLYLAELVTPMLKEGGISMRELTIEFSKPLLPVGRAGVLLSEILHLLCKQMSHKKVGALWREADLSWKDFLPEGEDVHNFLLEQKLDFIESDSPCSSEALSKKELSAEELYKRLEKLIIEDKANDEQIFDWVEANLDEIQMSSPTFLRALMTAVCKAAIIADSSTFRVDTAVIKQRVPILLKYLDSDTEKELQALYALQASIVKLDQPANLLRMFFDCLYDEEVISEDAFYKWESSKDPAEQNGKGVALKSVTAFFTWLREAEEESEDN

The assay has as its target FLAG-eIF4A1 (human) (UniProt P60842). The assay can be described thus: co-IP; 293T cells lysed in NP-40 lysis buffer; pre-cleared lysates treated with EtOH or 15d-PGJ2 at 30°C for 1 h; anti-FLAG antibody on protein G agarose, 4°C 1 h; western blot of the precipitate. Background: In western blotting, separated proteins are transferred to a membrane and probed.

In the case of “GFP-eIF4GII (from UniProt O43432 1-1585)”, the binding result is on record as “binds weakly”.

The values are drawn from PMC6262856.
